The target in test [1] is aggrecan (aggrecan-CSPG, chondroitin sulfate proteoglycan) (mouse (endogenous in V1 lysate)) (UniProt Q61282). Nature of the test: condition: only cortical lysates pre-incubated with ChABC (chondroitinase ABC); co-IP; mouse V1 lysates pre-incubated with chondroitinase ABC (ChABC); protein A beads conjugated to anti-Otx2 or anti-aggrecan antibody; precipitates analysed by immunoblotting. A general note: Immunoblotting shows a protein as a band on a membrane.

The chains behind the UniProt entries cited, without tags or fusion partners. Residues count along the entry.
UniProt Q61282, residues 20-2132: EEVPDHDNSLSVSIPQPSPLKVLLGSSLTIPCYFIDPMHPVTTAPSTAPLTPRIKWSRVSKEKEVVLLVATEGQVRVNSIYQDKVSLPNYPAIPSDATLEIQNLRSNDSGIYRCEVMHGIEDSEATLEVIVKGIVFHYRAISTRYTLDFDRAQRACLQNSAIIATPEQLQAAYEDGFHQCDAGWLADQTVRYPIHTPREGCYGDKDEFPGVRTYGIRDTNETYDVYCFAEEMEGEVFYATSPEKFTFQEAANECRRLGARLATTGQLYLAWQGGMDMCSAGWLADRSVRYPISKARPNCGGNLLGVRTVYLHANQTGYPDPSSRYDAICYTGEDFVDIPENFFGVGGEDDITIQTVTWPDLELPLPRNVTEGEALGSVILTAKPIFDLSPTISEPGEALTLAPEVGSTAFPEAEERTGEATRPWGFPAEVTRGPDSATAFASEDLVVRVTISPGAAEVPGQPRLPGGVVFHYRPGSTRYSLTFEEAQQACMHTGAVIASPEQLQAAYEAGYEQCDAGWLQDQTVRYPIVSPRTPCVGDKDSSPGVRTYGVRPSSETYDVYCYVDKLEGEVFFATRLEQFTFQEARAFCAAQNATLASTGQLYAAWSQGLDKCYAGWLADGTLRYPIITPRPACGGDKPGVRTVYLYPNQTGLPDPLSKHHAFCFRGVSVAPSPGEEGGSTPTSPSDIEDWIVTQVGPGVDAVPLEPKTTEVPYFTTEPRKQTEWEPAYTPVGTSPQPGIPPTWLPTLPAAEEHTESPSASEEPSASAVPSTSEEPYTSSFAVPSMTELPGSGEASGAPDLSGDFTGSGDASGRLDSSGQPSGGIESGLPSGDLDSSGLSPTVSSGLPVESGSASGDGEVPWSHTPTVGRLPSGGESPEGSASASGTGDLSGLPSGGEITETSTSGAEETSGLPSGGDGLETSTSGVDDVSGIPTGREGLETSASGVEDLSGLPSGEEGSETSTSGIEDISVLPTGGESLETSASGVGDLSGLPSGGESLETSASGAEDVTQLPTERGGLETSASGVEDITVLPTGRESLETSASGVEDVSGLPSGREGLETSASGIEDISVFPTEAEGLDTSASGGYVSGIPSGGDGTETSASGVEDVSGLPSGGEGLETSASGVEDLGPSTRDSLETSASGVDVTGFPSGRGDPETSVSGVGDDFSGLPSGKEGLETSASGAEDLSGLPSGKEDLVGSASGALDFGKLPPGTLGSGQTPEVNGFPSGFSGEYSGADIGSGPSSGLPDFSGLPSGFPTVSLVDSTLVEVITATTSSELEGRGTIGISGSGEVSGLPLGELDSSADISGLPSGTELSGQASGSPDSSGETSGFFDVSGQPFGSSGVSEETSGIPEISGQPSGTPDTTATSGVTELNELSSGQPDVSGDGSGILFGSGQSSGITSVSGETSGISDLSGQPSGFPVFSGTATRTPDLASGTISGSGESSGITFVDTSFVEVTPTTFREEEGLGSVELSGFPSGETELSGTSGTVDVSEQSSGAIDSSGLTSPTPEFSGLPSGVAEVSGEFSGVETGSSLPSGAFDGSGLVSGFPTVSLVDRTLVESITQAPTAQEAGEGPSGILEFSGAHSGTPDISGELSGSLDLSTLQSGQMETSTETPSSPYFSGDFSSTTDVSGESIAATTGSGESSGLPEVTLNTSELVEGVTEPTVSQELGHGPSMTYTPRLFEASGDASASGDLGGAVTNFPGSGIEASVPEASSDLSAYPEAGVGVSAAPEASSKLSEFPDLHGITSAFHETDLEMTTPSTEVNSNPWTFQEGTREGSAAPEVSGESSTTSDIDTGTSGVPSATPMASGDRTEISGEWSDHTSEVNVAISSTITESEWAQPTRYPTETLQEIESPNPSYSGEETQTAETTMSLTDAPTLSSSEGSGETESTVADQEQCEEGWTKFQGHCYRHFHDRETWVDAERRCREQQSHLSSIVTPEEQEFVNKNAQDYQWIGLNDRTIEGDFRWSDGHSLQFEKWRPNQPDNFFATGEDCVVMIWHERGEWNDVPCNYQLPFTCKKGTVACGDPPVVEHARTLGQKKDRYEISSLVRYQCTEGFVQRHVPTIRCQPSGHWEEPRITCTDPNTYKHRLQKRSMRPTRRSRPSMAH
UniProt P63073: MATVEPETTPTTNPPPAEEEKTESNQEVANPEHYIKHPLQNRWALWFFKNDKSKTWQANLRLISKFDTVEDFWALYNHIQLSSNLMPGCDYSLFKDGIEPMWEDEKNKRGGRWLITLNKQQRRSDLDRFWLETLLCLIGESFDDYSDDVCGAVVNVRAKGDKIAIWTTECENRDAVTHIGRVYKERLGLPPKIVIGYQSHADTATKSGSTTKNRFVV
UniProt P80206: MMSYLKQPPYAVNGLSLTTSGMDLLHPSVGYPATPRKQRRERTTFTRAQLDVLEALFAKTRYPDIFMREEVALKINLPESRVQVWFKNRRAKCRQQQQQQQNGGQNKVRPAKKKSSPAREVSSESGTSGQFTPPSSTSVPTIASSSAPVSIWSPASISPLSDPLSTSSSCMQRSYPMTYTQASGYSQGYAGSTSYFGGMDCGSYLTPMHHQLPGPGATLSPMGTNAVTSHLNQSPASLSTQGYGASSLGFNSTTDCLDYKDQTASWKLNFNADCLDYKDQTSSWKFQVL

For test [2], the target named is translation initiation factor eIF4E (mouse (endogenous in V1 lysate)) (UniProt P63073). Nature of the test: co-IP; mouse V1 lysates without ChABC; protein A beads conjugated to 2.5 ug anti-Otx2, anti-aggrecan or anti-eIF4E antibody (normal rabbit IgG as control); precipitates analysed by immunoblotting.
For test [3], the target named is aggrecan (aggrecan-CSPG, chondroitin sulfate proteoglycan) (mouse (endogenous in V1 lysate)) (UniProt Q61282). Described as above.
The target in test [4] is Otx2 homeoprotein (mouse (endogenous in V1 lysate)) (UniProt P80206). The description is as above.

These are yes or no findings as the source states them, for the method shown. Binding seen in cells or lysates may run through a third protein. Some results given as binding are weak or reduced against the parent protein; the word gives no strength.

Consider “Otx2 homeoprotein (from UniProt P80206 1-289)”, for which the binding entry is “no binding” in test [1], “binds” in test [2] and “binds” in test [3].
Regarding “translation initiation factor eIF4E (from UniProt P63073 1-217)”, the binding entry in test [4] was “binds”.
